The supplement of paper PMC10849652
The other results are listed elsewhere or left out.

The chains behind the UniProt entries cited, without tags or fusion partners. Where a name states a change or a piece, a line headed by the entry shows the natural chain unless it says otherwise.
UniProt O60732: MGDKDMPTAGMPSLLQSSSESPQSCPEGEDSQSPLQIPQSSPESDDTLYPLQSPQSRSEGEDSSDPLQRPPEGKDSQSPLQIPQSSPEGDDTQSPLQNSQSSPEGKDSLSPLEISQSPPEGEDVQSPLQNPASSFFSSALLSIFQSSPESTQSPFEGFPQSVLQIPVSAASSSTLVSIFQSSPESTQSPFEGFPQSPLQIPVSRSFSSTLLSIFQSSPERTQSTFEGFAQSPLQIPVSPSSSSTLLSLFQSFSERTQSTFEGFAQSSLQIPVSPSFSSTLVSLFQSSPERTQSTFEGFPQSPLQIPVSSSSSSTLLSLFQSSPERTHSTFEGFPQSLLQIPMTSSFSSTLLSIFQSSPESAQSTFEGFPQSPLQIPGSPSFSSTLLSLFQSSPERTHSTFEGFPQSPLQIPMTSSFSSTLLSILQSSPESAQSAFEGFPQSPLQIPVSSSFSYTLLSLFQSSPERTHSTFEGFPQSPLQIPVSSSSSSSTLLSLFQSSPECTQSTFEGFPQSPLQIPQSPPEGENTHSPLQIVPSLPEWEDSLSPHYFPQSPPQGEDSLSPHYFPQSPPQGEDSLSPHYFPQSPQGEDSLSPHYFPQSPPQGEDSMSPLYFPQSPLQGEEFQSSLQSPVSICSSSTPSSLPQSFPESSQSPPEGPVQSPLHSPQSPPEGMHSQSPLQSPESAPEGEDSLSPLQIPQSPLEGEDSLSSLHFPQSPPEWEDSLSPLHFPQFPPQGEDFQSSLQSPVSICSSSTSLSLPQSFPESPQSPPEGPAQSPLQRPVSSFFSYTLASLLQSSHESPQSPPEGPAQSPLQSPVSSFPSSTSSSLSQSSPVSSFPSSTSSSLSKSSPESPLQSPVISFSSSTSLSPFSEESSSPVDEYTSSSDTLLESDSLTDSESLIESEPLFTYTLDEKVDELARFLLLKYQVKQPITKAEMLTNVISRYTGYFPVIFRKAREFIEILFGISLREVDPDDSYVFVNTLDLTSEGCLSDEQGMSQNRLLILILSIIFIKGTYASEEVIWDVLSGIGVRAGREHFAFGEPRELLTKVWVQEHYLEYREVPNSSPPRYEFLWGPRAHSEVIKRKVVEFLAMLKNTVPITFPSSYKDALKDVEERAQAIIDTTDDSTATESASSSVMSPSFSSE
UniProt Q14244: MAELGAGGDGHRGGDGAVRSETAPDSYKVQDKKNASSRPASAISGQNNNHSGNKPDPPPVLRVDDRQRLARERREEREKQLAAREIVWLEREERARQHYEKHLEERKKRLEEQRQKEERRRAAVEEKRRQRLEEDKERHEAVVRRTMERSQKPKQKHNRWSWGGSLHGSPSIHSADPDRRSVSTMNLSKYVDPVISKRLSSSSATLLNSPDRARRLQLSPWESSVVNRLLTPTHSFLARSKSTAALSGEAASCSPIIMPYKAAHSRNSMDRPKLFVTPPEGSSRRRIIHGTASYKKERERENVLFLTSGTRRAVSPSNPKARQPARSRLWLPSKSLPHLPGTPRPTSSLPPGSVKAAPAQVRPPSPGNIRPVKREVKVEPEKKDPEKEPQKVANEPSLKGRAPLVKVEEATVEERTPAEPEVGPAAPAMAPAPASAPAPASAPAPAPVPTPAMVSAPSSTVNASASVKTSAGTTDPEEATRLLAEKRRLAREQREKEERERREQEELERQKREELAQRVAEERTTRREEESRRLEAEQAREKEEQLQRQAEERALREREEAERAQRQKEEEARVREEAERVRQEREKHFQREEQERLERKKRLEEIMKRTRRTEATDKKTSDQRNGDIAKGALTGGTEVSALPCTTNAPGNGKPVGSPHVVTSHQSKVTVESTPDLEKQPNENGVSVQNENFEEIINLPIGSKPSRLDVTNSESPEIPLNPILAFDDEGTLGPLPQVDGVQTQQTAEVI
UniProt Q5VWZ2: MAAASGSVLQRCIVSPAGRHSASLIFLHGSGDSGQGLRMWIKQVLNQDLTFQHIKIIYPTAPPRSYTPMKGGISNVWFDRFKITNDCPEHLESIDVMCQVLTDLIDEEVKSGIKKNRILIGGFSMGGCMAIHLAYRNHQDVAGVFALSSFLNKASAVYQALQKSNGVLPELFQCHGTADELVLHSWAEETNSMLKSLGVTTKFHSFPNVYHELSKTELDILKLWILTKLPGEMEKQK
UniProt Q8N5G2: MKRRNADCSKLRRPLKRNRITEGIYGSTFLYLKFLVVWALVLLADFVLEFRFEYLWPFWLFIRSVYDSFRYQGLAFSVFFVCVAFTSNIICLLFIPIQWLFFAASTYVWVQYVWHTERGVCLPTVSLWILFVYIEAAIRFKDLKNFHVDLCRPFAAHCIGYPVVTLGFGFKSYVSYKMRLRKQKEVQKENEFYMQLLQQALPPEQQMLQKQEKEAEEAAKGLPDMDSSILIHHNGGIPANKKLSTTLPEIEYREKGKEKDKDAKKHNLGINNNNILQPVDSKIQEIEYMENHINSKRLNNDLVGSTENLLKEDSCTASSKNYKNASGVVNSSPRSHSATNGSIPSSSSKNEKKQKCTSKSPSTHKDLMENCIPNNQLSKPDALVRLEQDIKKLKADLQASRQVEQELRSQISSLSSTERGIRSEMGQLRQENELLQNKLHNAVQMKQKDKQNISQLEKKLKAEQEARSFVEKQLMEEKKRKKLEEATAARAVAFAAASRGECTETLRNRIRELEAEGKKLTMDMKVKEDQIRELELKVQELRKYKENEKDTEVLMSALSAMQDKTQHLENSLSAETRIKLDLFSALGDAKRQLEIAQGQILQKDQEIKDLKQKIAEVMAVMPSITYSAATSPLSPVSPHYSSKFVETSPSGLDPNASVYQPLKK
UniProt P62312: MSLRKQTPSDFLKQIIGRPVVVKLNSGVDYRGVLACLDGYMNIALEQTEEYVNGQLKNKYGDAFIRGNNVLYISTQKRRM
UniProt P02788: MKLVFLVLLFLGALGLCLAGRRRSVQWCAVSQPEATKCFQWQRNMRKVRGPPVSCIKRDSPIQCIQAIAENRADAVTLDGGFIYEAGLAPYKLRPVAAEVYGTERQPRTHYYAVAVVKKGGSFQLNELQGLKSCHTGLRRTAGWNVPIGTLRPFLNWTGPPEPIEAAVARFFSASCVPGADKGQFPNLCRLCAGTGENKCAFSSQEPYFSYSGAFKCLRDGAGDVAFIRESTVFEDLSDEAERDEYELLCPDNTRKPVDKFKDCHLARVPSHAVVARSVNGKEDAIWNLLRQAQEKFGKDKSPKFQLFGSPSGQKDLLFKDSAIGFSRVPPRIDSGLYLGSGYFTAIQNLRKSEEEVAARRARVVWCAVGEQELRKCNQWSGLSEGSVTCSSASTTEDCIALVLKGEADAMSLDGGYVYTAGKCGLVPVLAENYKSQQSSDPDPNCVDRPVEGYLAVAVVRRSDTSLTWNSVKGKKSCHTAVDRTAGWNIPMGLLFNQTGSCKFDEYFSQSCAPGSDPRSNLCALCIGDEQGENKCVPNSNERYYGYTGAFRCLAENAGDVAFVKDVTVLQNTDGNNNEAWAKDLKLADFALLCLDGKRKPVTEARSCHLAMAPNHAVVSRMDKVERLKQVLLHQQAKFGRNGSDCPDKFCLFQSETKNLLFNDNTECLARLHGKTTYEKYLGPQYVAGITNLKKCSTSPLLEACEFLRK
UniProt P43366: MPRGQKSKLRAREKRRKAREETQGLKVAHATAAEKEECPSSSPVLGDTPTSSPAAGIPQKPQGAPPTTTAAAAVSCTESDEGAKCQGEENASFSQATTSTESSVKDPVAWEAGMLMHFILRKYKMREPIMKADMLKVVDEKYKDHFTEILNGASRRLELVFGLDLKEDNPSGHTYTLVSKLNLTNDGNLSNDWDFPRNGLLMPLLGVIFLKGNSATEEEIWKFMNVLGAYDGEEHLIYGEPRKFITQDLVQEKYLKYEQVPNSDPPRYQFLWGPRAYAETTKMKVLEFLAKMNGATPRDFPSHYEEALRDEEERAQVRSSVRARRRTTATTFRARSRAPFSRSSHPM
UniProt Q8ND56: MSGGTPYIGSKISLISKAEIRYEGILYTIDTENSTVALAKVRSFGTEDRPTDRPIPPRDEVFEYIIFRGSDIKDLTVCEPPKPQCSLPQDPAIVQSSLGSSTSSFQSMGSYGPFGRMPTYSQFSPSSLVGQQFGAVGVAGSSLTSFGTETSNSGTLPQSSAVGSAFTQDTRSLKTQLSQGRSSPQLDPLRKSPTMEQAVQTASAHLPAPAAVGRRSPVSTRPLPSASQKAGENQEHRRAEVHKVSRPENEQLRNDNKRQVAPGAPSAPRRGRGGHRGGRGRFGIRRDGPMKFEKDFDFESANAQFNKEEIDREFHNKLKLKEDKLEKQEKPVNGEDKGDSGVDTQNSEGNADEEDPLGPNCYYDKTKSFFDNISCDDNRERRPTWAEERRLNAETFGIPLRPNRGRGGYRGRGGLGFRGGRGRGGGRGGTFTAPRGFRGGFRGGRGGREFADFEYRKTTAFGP
UniProt Q9UKM7: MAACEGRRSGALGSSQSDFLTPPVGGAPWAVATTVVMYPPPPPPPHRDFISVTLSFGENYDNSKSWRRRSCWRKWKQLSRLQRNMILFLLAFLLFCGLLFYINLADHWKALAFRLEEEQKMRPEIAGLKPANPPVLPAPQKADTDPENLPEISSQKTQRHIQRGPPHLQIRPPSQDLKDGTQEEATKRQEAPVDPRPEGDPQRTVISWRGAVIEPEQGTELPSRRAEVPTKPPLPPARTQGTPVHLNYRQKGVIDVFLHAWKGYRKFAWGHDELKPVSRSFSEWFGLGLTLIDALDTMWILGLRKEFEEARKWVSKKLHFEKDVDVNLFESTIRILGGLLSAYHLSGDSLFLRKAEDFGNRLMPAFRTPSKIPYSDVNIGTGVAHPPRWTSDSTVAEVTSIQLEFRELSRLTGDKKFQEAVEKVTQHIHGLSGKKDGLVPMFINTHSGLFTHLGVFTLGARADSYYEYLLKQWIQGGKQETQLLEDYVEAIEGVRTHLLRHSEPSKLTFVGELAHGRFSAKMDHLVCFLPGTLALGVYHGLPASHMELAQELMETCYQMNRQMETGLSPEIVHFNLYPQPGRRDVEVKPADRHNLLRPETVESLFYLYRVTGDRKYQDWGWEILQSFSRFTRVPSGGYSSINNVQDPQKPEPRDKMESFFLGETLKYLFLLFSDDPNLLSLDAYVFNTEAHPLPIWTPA
UniProt Q3MHD2: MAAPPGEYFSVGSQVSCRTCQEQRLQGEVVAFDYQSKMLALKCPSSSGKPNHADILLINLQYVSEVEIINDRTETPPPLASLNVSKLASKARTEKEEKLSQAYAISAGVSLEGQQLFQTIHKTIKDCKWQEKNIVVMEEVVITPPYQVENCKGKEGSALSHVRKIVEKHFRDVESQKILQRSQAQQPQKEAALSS
UniProt O95777: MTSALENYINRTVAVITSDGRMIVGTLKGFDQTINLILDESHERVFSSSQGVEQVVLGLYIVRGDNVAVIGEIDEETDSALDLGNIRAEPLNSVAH
UniProt Q15691: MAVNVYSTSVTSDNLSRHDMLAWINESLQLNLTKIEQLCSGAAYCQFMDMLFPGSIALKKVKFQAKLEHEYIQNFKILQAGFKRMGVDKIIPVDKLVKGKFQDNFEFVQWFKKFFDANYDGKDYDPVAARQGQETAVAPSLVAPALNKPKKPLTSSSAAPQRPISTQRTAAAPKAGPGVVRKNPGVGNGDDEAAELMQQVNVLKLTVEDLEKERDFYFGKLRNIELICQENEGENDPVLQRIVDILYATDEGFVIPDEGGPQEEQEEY

Legend:
Experiment in all cases: log2 fold change, soluble protein after heating vs DMSO (PISA); higher = thermal stabilisation; K562 cells, 10 uM, 30 min; active = over 0.2 and 3.5 SD of the protein, either way, in both replicates (recomputed)
[1] = compound: CC[C@@H]1C(=O)N(C)c2cnc(Nc3ccc(C(=O)NC4CCN(C)CC4)cc3OC)nc2N1C1CCCC1
Summary of the method: (§1)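 K562 cells (2×10^6 cells/mL) were treated with 10 μM compound for 30 min, and aliquots were heated for 3 min over 48°C-58°C. Pooled aliquots were extracted in PBS with 0.5% NP-40 at 4°C, and the supernatant after 21,000xg for 90 min was measured by TMTpro 16plex LC-MS/MS with channel sums equalised. Reported thermal stability, relative to control samples and from duplicates, is a log2 fold change.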

volasertib = compound: CC[C@@H]1C(=O)N(C)c2cnc(Nc3ccc(C(=O)N[C@H]4CC[C@H](N5CCN(CC6CC6)CC5)CC4)cc3OC)nc2N1C(C)C [volasertib]
Summary of the method: as §1

[2] = compound: CC[C@H](C)N1C=C(C2=C(C=C(C=C21)C3=CN=C(C=C3)N4CCNCC4)C(=O)NCC5=C(C=C(NC5=O)C)C)C
Summary of the method: as §1

epoxomicin = compound: CC[C@H](C)[C@@H](C(=O)N[C@@H]([C@@H](C)O)C(=O)N[C@@H](CC(C)C)C(=O)[C@]1(CO1)C)NC(=O)[C@H]([C@@H](C)CC)N(C)C(=O)C [epoxomicin]
Summary of the method: as §1

[3] = compound: CCn1c(C(=O)N(C2CC2)C2CC2)cc2c3c(ncn3C)c(Nc3cc(C)n(C)n3)nc21
Summary of the method: as §1

[4] = compound: CCn1cc(-c2ccnc3[nH]c(-c4cccc(CN(C)C)c4)cc23)c(-c2ccc(NC(=O)N(C)C)cc2)n1
Summary of the method: as §1

[5] = compound: CN(C)CC(=O)Nc1ccc2[nH]c(=O)c3ccccc3c2c1
Summary of the method: as §1

rosiglitazone = compound: CN(CCOC1=CC=C(C=C1)C[C@H]2C(=O)NC(=O)S2)C3=CC=CC=N3 (racemic) [rosiglitazone]
Summary of the method: as §1

[6] = compound: CN1C2=C(C3=C1C(=O)N(N=C3)CC4=CC(=CC=C4)N)SC(=C2)S(=O)C
Summary of the method: as §1

[7] = compound: CN1CCC(CNc2ccc3ncc(-c4cccc(OC(F)(F)F)c4)n3n2)CC1
Summary of the method: as §1

saracatinib = compound: CN1CCN(CCOc2cc(OC3CCOCC3)c3c(Nc4c(Cl)ccc5c4OCO5)ncnc3c2)CC1 [saracatinib]
Summary of the method: as §1

sotrastaurin = compound: CN1CCN(c2nc(C3=C(c4c[nH]c5ccccc45)C(=O)NC3=O)c3ccccc3n2)CC1 [sotrastaurin]
Summary of the method: as §1

alvocidib = compound: CN1CC[C@H](c2c(O)cc(O)c3c(=O)cc(-c4ccccc4Cl)oc23)[C@H](O)C1 [alvocidib]
Summary of the method: as §1

Tubastatin A = compound: CN1CCc2c(c3ccccc3n2Cc2ccc(C(=O)NO)cc2)C1 [Tubastatin A]
Summary of the method: as §1

[8] = compound: CNC(=O)C1=CC=CC=C1NC2=NC(=NC=C2Cl)NC3=C(C=C(C=C3)N4CCOCC4)OC
Summary of the method: as §1

defactinib = compound: CNC(=O)c1ccc(Nc2ncc(C(F)(F)F)c(NCc3nccnc3N(C)S(C)(=O)=O)n2)cc1 [defactinib]
Summary of the method: as §1

rucaparib = compound: CNCc1ccc(-c2[nH]c3cc(F)cc4c3c2CCNC4=O)cc1 [rucaparib]
Summary of the method: as §1

[9] = compound: CNc1nc(-c2ccc3c(N)n[nH]c3c2)cc(N2C[C@@H](C(=O)NC3CCCCC3)CC[C@H]2C)n1
Summary of the method: as §1

encorafenib = compound: COC(=O)N[C@@H](C)CNc1nccc(-c2cn(C(C)C)nc2-c2cc(Cl)cc(NS(C)(=O)=O)c2F)n1 [encorafenib]
Summary of the method: as §1

[10] = compound: COC(=O)[C@H](CCSC)NC(=O)C1=C(C=C(C=C1)NC[C@H](CS)N)C2=CC=CC=C2
Summary of the method: as §1

Measured: log2 fold change

MAGEC1 (UniProt O60732)
inactive: [1] -0.019 | volasertib -0.296 | [2] 0.023 | epoxomicin -0.058 | [3] -0.065 | [4] 0.021 | [5] 0.028 | rosiglitazone -0.121 | [6] 0.162 | [7] 0.023 | saracatinib -0.122 | sotrastaurin -0.195 | alvocidib -0.032 | Tubastatin A 0.011 | [8] -0.004 | defactinib 0.034 | rucaparib 0.389 | [9] 0.049 | encorafenib 0.22 | [10] -0.023

MAP7 isoform 7 (UniProt Q14244)
inactive: [1] 0.361 | volasertib 0.392 | [2] 0.043 | epoxomicin -0.365 | [3] -0.025 | [4] 0.036 | [5] -0.192 | rosiglitazone -0.216 | [6] 0.314 | [7] 0.259 | saracatinib -0.163 | sotrastaurin 0.012 | alvocidib 0.232 | Tubastatin A 0.187 | [8] 0.14 | defactinib 0.437 | rucaparib 0.255 | [9] 0.203 | encorafenib 0.029 | [10] 0.078

MALSU1 (UniProt Q96EH3)
inactive: [1] 0.026 | volasertib 0.028 | [2] -0.026 | epoxomicin 0.009 | [3] 0.015 | [4] 0.082 | [5] -0.046 | rosiglitazone -0.045 | [6] -0.054 | [7] -0.001 | saracatinib 0.049 | sotrastaurin 0.016 | alvocidib -0.086 | Tubastatin A 0.036 | [8] -0.002 | defactinib 0.023 | rucaparib -0.01 | [9] -0.03 | encorafenib 0.026 | [10] -0.039

LYPLAL1 (UniProt Q5VWZ2)
inactive: [1] 0.031 | volasertib 0.04 | [2] 0.004 | epoxomicin 0.075 | [3] -0.02 | [4] -0.055 | [5] 0 | rosiglitazone 0.124 | [6] -0.068 | [7] -0.054 | saracatinib 0.012 | sotrastaurin -0.007 | alvocidib -0.126 | Tubastatin A 0.026 | [8] 0.017 | defactinib -0.044 | rucaparib -0.101 | [9] -0.047 | encorafenib 0.009 | [10] -0.017

MACO1 (UniProt Q8N5G2)
inactive: [1] 0.031 | volasertib -0.011 | [2] -0.029 | epoxomicin 0.035 | [3] -0.013 | [4] -0.004 | [5] 0.051 | rosiglitazone -0.035 | [6] 0.042 | [7] 0.024 | saracatinib 0.005 | sotrastaurin 0.023 | alvocidib -0.001 | Tubastatin A 0.032 | [8] -0.044 | defactinib -0.008 | rucaparib 0.076 | [9] -0.005 | encorafenib 0.042 | [10] -0.001

LSM6 (UniProt P62312)
inactive: [1] -0.02 | volasertib 0.065 | [2] -0.05 | epoxomicin -0.079 | [3] 0.024 | [4] -0.096 | [5] -0.005 | rosiglitazone -0.033 | [6] -0.063 | [7] 0.265 | saracatinib 0.113 | sotrastaurin 0.046 | alvocidib -0.064 | Tubastatin A 0.016 | [8] -0.007 | defactinib 0.039 | rucaparib 0.005 | [9] 0.009 | encorafenib -0.063 | [10] -0.041

LTF (UniProt P02788)
inactive: [1] -0.042 | volasertib -0.003 | [2] 0.539 | epoxomicin -0.214 | [3] -0.017 | [4] -0.009 | [5] -0.015 | rosiglitazone -0.021 | [6] 0.259 | [7] -0.025 | saracatinib 0.555 | sotrastaurin 0.058 | alvocidib -0.035 | Tubastatin A -0.146 | [8] 0.333 | defactinib -0.063 | rucaparib -0.248 | [9] 0.051 | encorafenib 0.007 | [10] 0.154

MAGEB1 (UniProt P43366)
inactive: [1] 0.104 | volasertib 0.12 | [2] 0.025 | epoxomicin -0.306 | [3] 0.024 | [4] 0.183 | [5] -0.052 | rosiglitazone -0.075 | [6] 0.339 | [7] -0.038 | saracatinib -0.108 | sotrastaurin -0.035 | alvocidib 0.178 | Tubastatin A 0.151 | [8] 0.03 | defactinib 0.306 | rucaparib 0.363 | [9] 0.162 | encorafenib 0.167 | [10] -0.032

LSM14A isoform 2 (UniProt Q8ND56)
inactive: [1] 0.031 | volasertib -0.166 | [2] 0.004 | epoxomicin -0.006 | [3] -0.083 | [4] 0.027 | [5] -0.006 | rosiglitazone 0.002 | [6] -0.025 | [7] -0.04 | saracatinib 0.016 | sotrastaurin 0.043 | alvocidib 0.042 | Tubastatin A 0.034 | [8] 0.035 | defactinib 0.043 | rucaparib 0.119 | [9] 0.112 | encorafenib -0.004 | [10] -0.007

2 records drawn at random from the list so far, as already listed:
LSM6 (UniProt P62312)
inactive: [1] -0.02 | volasertib 0.065 | [2] -0.05 | epoxomicin -0.079 | [3] 0.024 | [4] -0.096 | [5] -0.005 | rosiglitazone -0.033 | [6] -0.063 | [7] 0.265 | saracatinib 0.113 | sotrastaurin 0.046 | alvocidib -0.064 | Tubastatin A 0.016 | [8] -0.007 | defactinib 0.039 | rucaparib 0.005 | [9] 0.009 | encorafenib -0.063 | [10] -0.041

MAGEB1 (UniProt P43366)
inactive: [1] 0.104 | volasertib 0.12 | [2] 0.025 | epoxomicin -0.306 | [3] 0.024 | [4] 0.183 | [5] -0.052 | rosiglitazone -0.075 | [6] 0.339 | [7] -0.038 | saracatinib -0.108 | sotrastaurin -0.035 | alvocidib 0.178 | Tubastatin A 0.151 | [8] 0.03 | defactinib 0.306 | rucaparib 0.363 | [9] 0.162 | encorafenib 0.167 | [10] -0.032

Carrying on:

MAN1B1 (UniProt Q9UKM7)
inactive: [1] -0.065 | volasertib -0.179 | [2] 0.027 | epoxomicin -0.011 | [3] -0.049 | [4] -0.05 | [5] 0.021 | rosiglitazone 0.064 | [6] -0.018 | [7] -0.175 | saracatinib -0.003 | sotrastaurin 0.043 | alvocidib -0.026 | Tubastatin A 0.013 | [8] -0.032 | defactinib -0.037 | rucaparib 0.023 | [9] -0.029 | encorafenib 0.014 | [10] -0.047

LSM12 isoform 2 (UniProt Q3MHD2)
inactive: [1] 0.01 | volasertib -0.027 | [2] -0.016 | epoxomicin 0.04 | [3] -0.109 | [4] 0.115 | [5] 0.004 | rosiglitazone -0.067 | [6] 0.011 | [7] 0.089 | saracatinib 0.163 | sotrastaurin -0.004 | alvocidib -0.055 | Tubastatin A 0.053 | [8] -0.016 | defactinib 0.035 | rucaparib 0.16 | [9] -0.025 | encorafenib -0.033 | [10] 0.066

MAPK6 (UniProt Q16659)
inactive: [1] -0.022 | volasertib 0.102 | [2] 0.052 | epoxomicin 0.114 | [3] -0.033 | [4] -0.197 | [5] 0.165 | rosiglitazone -0.088 | [6] 0.091 | [7] 0.067 | saracatinib -0.01 | sotrastaurin 0.09 | alvocidib 0.05 | Tubastatin A 0.038 | [8] 0.03 | defactinib 0.066 | rucaparib -0.01 | [9] 0.109 | encorafenib -0.019 | [10] -0.071

MAK16 (UniProt Q9BXY0)
inactive: [1] 0.111 | volasertib 0.017 | [2] -0.001 | epoxomicin -0.146 | [3] 0.046 | [4] 0.058 | [5] -0.139 | rosiglitazone -0.114 | [6] 0.219 | [7] 0.244 | saracatinib -0.043 | sotrastaurin -0.157 | alvocidib 0.116 | Tubastatin A -0.075 | [8] -0.101 | defactinib -0.05 | rucaparib 0.001 | [9] -0.03 | encorafenib -0.024 | [10] 0.002

LYAR (UniProt Q9NX58)
inactive: [1] 0.306 | volasertib 0.377 | [2] -0.009 | epoxomicin -0.502 | [3] 0.119 | [4] 0.351 | [5] -0.207 | rosiglitazone -0.177 | [6] 0.383 | [7] 0.608 | saracatinib -0.068 | sotrastaurin -0.019 | alvocidib 0.454 | Tubastatin A 0.071 | [8] 0.107 | defactinib 0.767 | rucaparib 0.429 | [9] 0.065 | encorafenib 0.227 | [10] -0.067

LSM8 (UniProt O95777)
inactive: [1] 0.064 | volasertib 0.084 | [2] -0.043 | epoxomicin -0.053 | [3] 0.03 | [4] -0.006 | [5] -0.007 | rosiglitazone 0.008 | [6] -0.049 | [7] 0.02 | saracatinib 0.013 | sotrastaurin 0.037 | alvocidib 0.017 | Tubastatin A -0.033 | [8] -0.018 | defactinib -0.004 | rucaparib -0.063 | [9] -0.034 | encorafenib 0.005 | [10] 0.014

MAPRE1 (UniProt Q15691)
inactive: [1] -0.091 | volasertib -0.175 | [2] 0.064 | epoxomicin 0.031 | [3] 0.007 | [4] -0.005 | [5] 0.003 | rosiglitazone 0.054 | [6] -0.037 | [7] -0.056 | saracatinib -0.011 | sotrastaurin 0.013 | alvocidib -0.074 | Tubastatin A -0.021 | [8] 0.031 | defactinib -0.064 | rucaparib -0.046 | [9] 0.005 | encorafenib 0.013 | [10] 0.018
